Results reported in patent US20040010378.
Construct, isoform or probe ends are uncertain for at least one entry.

By UniProt entry, the sequences of proteins in these tests, tags left out. Where a name states a change or a piece, a line headed by the entry shows the natural chain unless it says otherwise.
UniProt P05549: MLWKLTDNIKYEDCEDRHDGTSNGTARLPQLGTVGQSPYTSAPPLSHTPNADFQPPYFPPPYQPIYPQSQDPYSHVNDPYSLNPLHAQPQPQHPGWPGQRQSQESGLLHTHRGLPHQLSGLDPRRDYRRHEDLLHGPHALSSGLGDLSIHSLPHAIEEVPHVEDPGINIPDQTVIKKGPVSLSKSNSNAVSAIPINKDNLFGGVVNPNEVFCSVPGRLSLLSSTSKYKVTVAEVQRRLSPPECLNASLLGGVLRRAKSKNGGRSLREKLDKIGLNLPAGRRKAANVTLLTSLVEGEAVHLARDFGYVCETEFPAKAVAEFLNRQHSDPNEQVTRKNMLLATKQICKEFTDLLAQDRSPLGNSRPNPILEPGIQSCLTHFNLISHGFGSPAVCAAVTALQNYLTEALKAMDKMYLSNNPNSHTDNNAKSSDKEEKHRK

Target: AP2 (AP-2 transcription factor) (UniProt P05549)
Assay: SPR
Details: 5' thiol on the immobilized strand, attached via SSMCC to MUAM gold surface; SPR imaging; binding buffer diluted 1:10 in 20 mM phosphate, 250 mM NaCl, pH 7.78; higher signal than PEG background regions; purified recombinant protein

Sequence: TTTTTTTTTTTTTTTGATCGAACTGACCGCCCGCGGCCCGT / ACGGGCCGCGGGCGGTCAGTTCGATC [AP2 consensus duplex (immobilized oligo + complement)]
- binding result: binds
